# Data published in the supplement of paper PMC9254222.
# Counter-ions that a name gives are not always drawn. In all, about 1,100 compounds were measured (“Renilla luciferase signal (cell health) relative to plate median”: median about 0.97, highest 2% from about 1.6 on). This is a selection; strong and weak results do not stand in their true shares.
# System: HEK293T (UBE3A T485A transfected, BAR Wnt reporter)
# Test: Renilla luciferase signal (cell health) relative to plate median (fold (linear ratio)); higher = higher Renilla signal
# Details: 24 h
# Procedure, shortened: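 Chemicals at 0.01–100 uM were left on transfected HEK293T cells for 24 h, after a four-hour wait following transfection. The cells held a BAR firefly luciferase Wnt reporter, TK-Renilla and an expression plasmid. Wnt activity, as the firefly/Renilla ratio from a Dual-Glo luciferase readout, and cell health, as raw Renilla, were median-centred within each plate. Results average four biological replicates.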
SMILES,Renilla luciferase signal (concentration: 0.1 uM),Renilla luciferase signal (concentration: 1 uM),Renilla luciferase signal (concentration: 10 uM),Renilla luciferase signal (concentration: 100 uM),Renilla luciferase signal (concentration: 0.01 uM)
"Clc1ccc(Cl)cc1 [1,4-Dichlorobenzene]",0.907,0.935,1.01,1.52,–
CCON=C(CC)C1=C(O)CC(c2c(C)cc(C)cc2C)CC1=O (stereo not drawn) [Tralkoxydim],0.909,0.936,1.06,0.913,0.883
N#Cc1c(Cl)c(Cl)c(Cl)c(C#N)c1Cl [Chlorothalonil],0.952,0.75,0.359,0.00871,1.01
CC(C)N1C(=O)c2ccccc2NS1(=O)=O [Bentazone],1.07,1.11,1.34,0.305,0.77
ClC1=C(Cl)[C@]2(Cl)[C@H]3[C@H]([C@@H]4C=C[C@H]3C4)[C@@]1(Cl)C2(Cl)Cl [Aldrin],0.922,0.941,1.02,1.1,–
COC(=O)c1ccccc1C(=O)OC [Dimethyl phthalate],0.976,1.03,1.06,1.37,1.16
CON(C)C(=O)Nc1ccc(Cl)c(Cl)c1 [Linuron],1.21,1.03,1.04,0.863,1.29
CCC(C)Nc1c([N+](=O)[O-])cc(C(C)(C)C)cc1[N+](=O)[O-] (stereo not drawn) [Butralin],1.06,0.989,1.04,1.94,0.921
COC(=CC(N)=O)C(C)C(C=Cc1csc(-c2csc(C(C)C=CC=CC(C)C)n2)n1)OC (stereo not drawn) [Myxothiazol],1.03,0.128,0.201,0.0156,0.923
O=C(Nc1ccccc1)Nc1ccnc(Cl)c1 [Forchlorfenuron],1.2,1.05,0.842,0.0165,1.2
CCC(C)(C)c1ccc(O)cc1 [4-(2-Methylbutan-2-yl)phenol],0.874,0.809,0.795,0.442,–
Cl[C@H]1[C@H](Cl)[C@@H](Cl)[C@@H](Cl)[C@H](Cl)[C@H]1Cl [Lindane],0.93,0.973,0.922,1.17,0.922
CC(COc1ccc(Oc2ccccc2)cc1)Oc1ccccn1 (stereo not drawn) [Pyriproxyfen],1.17,1.02,0.72,0.712,1.21
ClC1=C(Cl)C2(Cl)C3C4OC4C(Cl)C3C1(Cl)C2(Cl)Cl (stereo not drawn) [Heptachlor epoxide],1.08,1.13,1.11,1.37,–
O=C(O)CNCP(=O)(O)O [Glyphosate],0.874,0.905,1.07,2.5,0.796
CON=C(C(=O)OC)c1ccccc1COc1ccccc1C [Kresoxim methyl],1.03,0.788,0.886,0.319,1.11
ClC(Cl)c1ccccc1 [Benzal chloride],1.11,0.929,1.12,1.15,–
COS(=O)(=O)[O-].Cn1c(-c2ccccc2)cc(-c2ccccc2)[n+]1C [Difenzoquat metilsulfate],1.21,0.979,0.98,0.0929,1.41
CCC(=O)O[C@H]1CC[C@H]2[C@@H]3CCC4=CC(=O)CC[C@]4(C)[C@H]3CC[C@]12C [Testosterone propionate],0.869,0.772,0.878,1.11,–
N#CCCCCC#N [Hexanedinitrile],0.974,0.99,1.02,0.934,–
CC(Oc1cccc(Cl)c1)C(=O)O (stereo not drawn) [Cloprop],0.701,0.814,1.01,2.51,0.924
CCCC1COC(Cn2cncn2)(c2ccc(Cl)cc2Cl)O1 (stereo not drawn) [Propiconazole],0.935,0.943,1.05,0.0347,0.966
COS(=O)(=O)OC [Dimethyl sulfate],0.879,0.971,0.924,0.122,–
O=S1OCC2C(CO1)C1(Cl)C(Cl)=C(Cl)C2(Cl)C1(Cl)Cl (stereo not drawn) [Endosulfan],1.05,1.02,1.13,1.06,1.05

SMILES,Renilla luciferase signal (concentration: 0.1 uM),Renilla luciferase signal (concentration: 1 uM),Renilla luciferase signal (concentration: 10 uM),Renilla luciferase signal (concentration: 100 uM),Renilla luciferase signal (concentration: 0.01 uM)
O=C(O)C(F)(F)C(F)(F)C(F)(F)C(F)(F)C(F)(F)C(F)(F)F [Perfluoroheptanoic acid],1.29,1.06,1.17,1.43,–
CC1=C(C(=O)Nc2ccccc2)SCCO1 [Carboxin],–,–,–,2.12,–
CCNc1nc(NC(C)C)nc(SC)n1 [Ametryn],–,–,–,1.78,–
OC(c1ccc(Cl)cc1)(c1ccc(Cl)cc1)C(Cl)(Cl)Cl [Dicofol],0.789,0.945,0.906,0.881,0.727
COc1cccc(C(=O)NN(C(=O)c2cc(C)cc(C)c2)C(C)(C)C)c1C [Methoxyfenozide],1.1,1.05,1.04,0.685,1.37
OCCCl [2-Chloroethanol],1.03,1.11,1.27,1.29,–
COP(=O)(OC)O/C(C)=C/C(=O)N(C)C [Dicrotophos],1.16,0.994,1.09,1.78,1.19
Cc1nc(N(C)C)nc(OC(=O)N(C)C)c1C [Pirimicarb],1.09,1.1,1.21,2.4,1.09
O=[N+]([O-])C(Br)(CO)CO [Bronopol],0.933,0.91,0.912,0.0266,–
COP(=S)(OC)Oc1ccc(SC)c(C)c1 [Fenthion],0.956,0.971,1.07,1.5,1.03
[Cl-].[Cl-].[Hg+2] [Mercuric chloride],0.533,0.402,0.153,0.0217,–
"Nc1ccc(Oc2ccc(N)cc2)cc1 [4,4'-Oxydianiline]",0.892,0.88,0.918,0.923,–
CCc1cccc(C)c1N(C(=O)CCl)C(C)COC (stereo not drawn) [Metolachlor],0.734,1.07,1.03,0.558,1.15
"CN(C)c1ccc(Cc2ccc(N(C)C)cc2)cc1 [4,4'-Methylenebis(N,N-dimethylaniline)]",1.12,1.11,1.1,0.424,–
Clc1nc(Cl)nc(Nc2ccccc2Cl)n1 [Anilazine],1.15,1.05,1.07,1.54,1.13
Cl[C@H]1[C@H](Cl)[C@@H](Cl)[C@H](Cl)[C@@H](Cl)[C@@H]1Cl [beta-Hexachlorocyclohexane],1.04,1.14,0.998,1.43,–
Cc1ccccc1COC1CC2(C(C)C)CCC1(C)O2 (stereo not drawn) [Cinmethylin],1.04,1.02,1.09,1.56,1.14
C=CC(N)=O [Acrylamide],1.26,1.3,1.31,1.36,–
CCCCc1ccccc1 [Butylbenzene],0.889,0.772,0.848,1.19,–
CCc1ccc(C(=O)NN(C(=O)c2cc(C)cc(C)c2)C(C)(C)C)cc1 [Tebufenozide],0.938,0.914,0.89,0.94,0.917
"Cc1ccc(O)c(C)c1 [2,4-Dimethylphenol]",1.02,1.02,0.947,1.21,–
c1ccc(C2CO2)cc1 (stereo not drawn) [Styrene oxide],0.989,1.09,1.2,1.31,–
CN1CSC(=S)N(C)C1 [Dazomet],0.805,0.888,0.954,0.553,0.995

# Quoted from the listing:
# Renilla luciferase signal (concentration: 0.1 uM), O=C(O)C(F)(F)C(F)(F)C(F)(F)C(F)(F)C(F)(F)C(F)(F)F [Perfluoroheptanoic acid] reads 1.29
# Renilla luciferase signal (concentration: 1 uM), O=[N+]([O-])C(Br)(CO)CO [Bronopol] reads 0.91
